For this assay, the system named is HEK293A TEAD-LUC reporter. Briefly: TEAD-luciferase reporter activity (YAP activation), robust Z score vs plate; higher = stronger YAP/TEAD activation. The conditions noted are these: 24 h.

This is one part of the list. Repeats in this data set agree poorly, so a single value says little.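 The human kidney-derived cells carry a stably integrated construct of eight TEAD-binding elements driving luciferase, read by luminescence in a drug-repurposing library screen. A compound counts as a hit when its signal is more than five robust Z scores above the plate mean.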

Regarding `NCCCCCC(=O)O` [6-Aminocaproic acid], the TEAD-luciferase reporter activity is inactive: -1.16 (compound concentration: 200 nM) and inactive: 0.542 (compound concentration: 10 uM).

On to `CCc1cccc2cc(C(O)CNC(C)(C)C)oc12` (stereo unspecified) [bufuralol], for which the TEAD-luciferase reporter activity is, setting by setting: (compound concentration: 200 nM) inactive: 0.283; (compound concentration: 2 uM) inactive: -2.06; (compound concentration: 10 uM) inactive: -1.52.

As to `COc1ccccc1N1CCN(CCC2CCc3ccccc3C2=O)CC1` (stereo unspecified), the TEAD-luciferase reporter activity reads like this: (compound concentration: 200 nM) inactive: -0.378; (compound concentration: 2 uM) inactive: -2.24; (compound concentration: 10 uM) inactive: 1.19.

Regarding `O=C(O)Cc1ccc(-c2ccccc2)cc1` [felbinac], the TEAD-luciferase reporter activity is inactive: 3.02 (compound concentration: 200 nM), inactive: 2.09 (compound concentration: 2 uM) and inactive: -0.378 (compound concentration: 10 uM).

`NC(=O)NC(CC(=O)O)C(=O)O` (stereo unspecified) [urazamide]: the TEAD-luciferase reporter activity (compound concentration: 200 nM) was inactive: -0.244, the TEAD-luciferase reporter activity (compound concentration: 2 uM) is inactive: -1.92 and the TEAD-luciferase reporter activity (compound concentration: 10 uM) is inactive: 0.16.

Consider `NC(=O)NC(=O)Cc1ccccc1`, for which the TEAD-luciferase reporter activity is, setting by setting: (compound concentration: 200 nM) inactive: -0.252; (compound concentration: 2 uM) inactive: 2.43; (compound concentration: 10 uM) inactive: 0.376.

On to `NCCCC(N)C(=O)O` (stereo unspecified) [ornithine phenylacetate], for which the TEAD-luciferase reporter activity (compound concentration: 200 nM) is inactive: 0.558, the TEAD-luciferase reporter activity (compound concentration: 2 uM) was inactive: -1.49 and the TEAD-luciferase reporter activity (compound concentration: 10 uM) was inactive: 1.41.

Regarding `CN(C)S(=O)(=O)c1cc2c(c3c1CCCC3)NC(=O)/C2=N/O`, the TEAD-luciferase reporter activity is, setting by setting: (compound concentration: 200 nM) inactive: -0.731; (compound concentration: 2 uM) inactive: 0.787; (compound concentration: 10 uM) inactive: -0.00192.

Take `C[C@@]12CCC[C@H]1[C@@H]1CC[C@H]3CCCC[C@]3(C)[C@H]1CC2` [(5alpha)-androstane]: the TEAD-luciferase reporter activity (compound concentration: 200 nM) is inactive: 3.88, the TEAD-luciferase reporter activity (compound concentration: 2 uM) is inactive: -2.02 and the TEAD-luciferase reporter activity (compound concentration: 10 uM) is inactive: -2.52.

On to `CNCCc1ccccn1` [betahistine, Labopharm], for which the TEAD-luciferase reporter activity was inactive: -2.3 (compound concentration: 200 nM), inactive: -1.91 (compound concentration: 2 uM) and inactive: -0.633 (compound concentration: 10 uM).

In the case of `CN[C@@H](CC(C)C)C(=O)NCCCC(c1ccc(F)cc1)c1ccc(F)cc1`, the TEAD-luciferase reporter activity (compound concentration: 200 nM) is inactive: -0.439, the TEAD-luciferase reporter activity (compound concentration: 2 uM) is inactive: 0.78 and the TEAD-luciferase reporter activity (compound concentration: 10 uM) was inactive: 4.87.

Regarding `Cc1c(OC=C2NCCN2)ccc(Cl)c1NS(C)(=O)=O` [Dabuzalgron], the TEAD-luciferase reporter activity is inactive: -1.39 (compound concentration: 200 nM), inactive: -2.27 (compound concentration: 2 uM) and inactive: 1.51 (compound concentration: 10 uM).

On to `Cc1nnc(C(=O)NC(C)(C)C2=NC(C(=O)NCc3ccc(F)cc3)C(=O)C(=O)N2C)o1` (stereo unspecified) [raltegravir], for which the TEAD-luciferase reporter activity (compound concentration: 200 nM) is inactive: 4.25, the TEAD-luciferase reporter activity (compound concentration: 2 uM) is inactive: -1.46 and the TEAD-luciferase reporter activity (compound concentration: 10 uM) is inactive: 0.715.

Turning to `CN(C)C(=O)CCn1nc(Nc2ccc3c(c2)OC(F)(F)O3)nc1-c1ccncc1`, the TEAD-luciferase reporter activity was inactive: 0.643 (compound concentration: 200 nM), inactive: -0.842 (compound concentration: 2 uM) and inactive: 2.05 (compound concentration: 10 uM).

For the compound `CC(C)=CCN1Cc2c(Cl)ccc3[nH]c(=S)n(c23)C[C@@H]1C`, the TEAD-luciferase reporter activity is, setting by setting: (compound concentration: 200 nM) inactive: -1.01; (compound concentration: 2 uM) inactive: 1.14; (compound concentration: 10 uM) inactive: 0.298.

With `CC(C)c1oc2ccc(C#N)cc2c1-c1ccccn1`, the TEAD-luciferase reporter activity (compound concentration: 200 nM) is inactive: -0.614, the TEAD-luciferase reporter activity (compound concentration: 2 uM) was inactive: 0.321 and the TEAD-luciferase reporter activity (compound concentration: 10 uM) was inactive: -0.454.

With `Oc1c(Cc2ccccc2)ccc2ccccc12`, the TEAD-luciferase reporter activity by setting is: (compound concentration: 200 nM) inactive: -0.25; (compound concentration: 2 uM) inactive: 2.37; (compound concentration: 10 uM) inactive: 2.08.

In the case of `N/C(=N\O)c1ccc(O)c(O)c1` [amidox], the TEAD-luciferase reporter activity by setting is: (compound concentration: 200 nM) inactive: 1.97; (compound concentration: 2 uM) inactive: 1.02; (compound concentration: 10 uM) inactive: 0.506.

As to `CCCCCCCCCCCCC/C=C/[C@@H](O)[C@H](COC1OC(CO)C(OC2OC(CO)C(OC3OC(CO)C(O)C(OC4OC(CO)C(O)C(O)C4O)C3NC(C)=O)C(OC3(C(=O)[O-])CC(O)C(NC(C)=O)C(C(O)C(O)CO)O3)C2O)C(O)C1O)NC(=O)CCCCCCCCCCCCCCCCC` (stereo partly specified) [Monosialoganglioside GM], the TEAD-luciferase reporter activity runs as follows: (compound concentration: 200 nM) inactive: -1.45; (compound concentration: 2 uM) inactive: -0.027; (compound concentration: 10 uM) inactive: -0.368.

With `CCCCC#Cc1nc(NC)c2ncn([C@@H]3O[C@H](CO)[C@@H](O)[C@H]3O)c2n1`, the TEAD-luciferase reporter activity (compound concentration: 200 nM) is inactive: 2.58, the TEAD-luciferase reporter activity (compound concentration: 2 uM) was inactive: 0.206 and the TEAD-luciferase reporter activity (compound concentration: 10 uM) was inactive: 1.06.

For `CN(Cc1c(-c2ccc(Cl)cc2)nc2ccccn12)C(=O)c1c(Cl)cccc1Cl`, the TEAD-luciferase reporter activity is, setting by setting: (compound concentration: 200 nM) inactive: -0.432; (compound concentration: 2 uM) inactive: -0.311; (compound concentration: 10 uM) inactive: 0.0868.

As to `CNc1nccc(-c2cc3cc(C(=O)NC(CN(c4ccccc4)c4ccccn4)C(=O)O)ccc3[nH]2)n1` (stereo unspecified), the TEAD-luciferase reporter activity is, setting by setting: (compound concentration: 200 nM) inactive: 0.188; (compound concentration: 2 uM) inactive: -0.414; (compound concentration: 10 uM) inactive: -0.641.

For `COc1cc2ncc(N[C@H]3CC[C@H](O)CC3)nc2cc1OC`, the TEAD-luciferase reporter activity is inactive: -0.698 (compound concentration: 200 nM), inactive: -1.59 (compound concentration: 2 uM) and inactive: 1.76 (compound concentration: 10 uM).

`CC(C)(C#N)NC(=O)[C@H]1CC[C@H]2[C@@H]3CC[C@H]4NC(=O)C=CC4(C)[C@H]3CCC12C` (stereo partly specified): the TEAD-luciferase reporter activity by setting is: (compound concentration: 200 nM) inactive: 0.154; (compound concentration: 2 uM) inactive: -0.795; (compound concentration: 10 uM) inactive: -0.911.

The record behind these values is the supplement of paper PMC10735217.
